# Test results as given in PubChem BioAssay AID248 (DTP/NCI, 2004).
# The list is a part of this screen's results and no random one: it is rich in T/C values a quarter to a half above the control, in often repeated tests (any T/C) and in doses without a T/C. Further doses and runs are listed elsewhere. T/C: endpoint of the treated group in % of that of the vehicle group. Some entries give survivors of the animals treated and no T/C: the source holds a T/C of zero for them, seemingly a mark for toxic or unscored doses. Some survivor counts are full or nearly so, which does not show that the dose was tolerated: the source hardly ever lists a survival T/C far under the control, and the zero likely stands for such cases as well. Survivors were counted at the toxicity check, usually on the fifth day, unless a day is given; later deaths do not show. Schedules are NCI's codes, taken here to give the interval after Q, in days (D) or hours (H), and the number of doses after X. Some doses were run more than once; the values are given in rising order. Some structures stand for samples that the source files as different forms (salt, stereo form or complex); doses refer to the form tested. For survival time, this PubChem deposit counts one and a half times the control or more as active, and values a quarter to a half above the control carry no call in these data; other NCI protocols may use other cut-offs.
# Tested on: L1210 leukemia ip in BDF1 mice, survival T/C
# Test: NCI In Vivo Anticancer Drug Screen. Data for tumor model L1210 Leukemia (intraperitoneal) in B6D2F1 (BDF1) mice
# Details: T/C endpoint: mean survival time, higher T/C = longer survival
# [1] = dose: 200.0 mg/kg/injection, schedule: Q04DX003 (ip), vehicle: saline
# [2] = dose: 400.0 mg/kg/injection, schedule: Q04DX003 (ip), vehicle: saline
# [3] = dose: 400.0 mg/kg/injection, schedule: Q01DX009 (ip), vehicle: Klucel (hydroxypropylcellulose) (HPC)
# [4] = dose: 200.0 mg/kg/injection, schedule: Q04DX002 (ip), vehicle: Klucel (hydroxypropylcellulose) (HPC)
# [5] = dose: 400.0 mg/kg/injection, schedule: Q01DX001 (ip), vehicle: carboxymethylcellulose (CMC)
# [6] = dose: 75.0 mg/kg/injection, schedule: Q01DX001 (ip), vehicle: saline
# [7] = dose: 150.0 mg/kg/injection, schedule: Q01DX001 (ip), vehicle: saline
# [8] = dose: 300.0 mg/kg/injection, schedule: Q01DX001 (ip), vehicle: saline
# [9] = dose: 400.0 mg/kg/injection, schedule: Q01DX001 (ip), vehicle: saline
# [10] = dose: 400.0 mg/kg/injection, schedule: Q01DX001 (ip), vehicle: saline with Tween-80
structure (smiles),measurement,setting,value
O=C(OCCCCOC(=O)c1cccc([N+](=O)[O-])c1)c1cccc([N+](=O)[O-])c1,survivor count,"dose: 25.0 mg/kg/injection, schedule: Q01DX009 (ip), vehicle: saline with Tween-80",1 of 6
same,survivor count,"dose: 50.0 mg/kg/injection, schedule: Q01DX009 (ip), vehicle: saline with Tween-80",0 of 6
same,survivor count,"dose: 100.0 mg/kg/injection, schedule: Q01DX009 (ip), vehicle: saline with Tween-80",0 of 6
c1cncc(-c2ncnc3c2Cc2ccccc2-3)c1,survivor count,"dose: 400.0 mg/kg/injection, schedule: Q04DX003 (ip), vehicle: Klucel (hydroxypropylcellulose) (HPC)",3 of 6
c1ccc(N=Nc2ccc[nH]2)cc1,survivor count,"dose: 200.0 mg/kg/injection, schedule: Q01DX009 (ip), vehicle: acetone",0 of 6
Cc1cc(NCC2CCNCC2)nc(/N=C(\N)Nc2ccc(Cl)c(Cl)c2)n1,survivor count,[1],1 of 6
same,survivor count,[2],2 of 6
COc1ccc(/C=C/c2nc3ccccc3nc2/C=C/c2ccc(OC)c(OC)c2)cc1OC,survivor count,[3],6 of 6
C=CCN(CC=C)CCN1CCN(CCCN2c3ccccc3Sc3ccc(C(F)(F)F)cc32)CC1,survivor count,"dose: 50.0 mg/kg/injection, schedule: Q01DX009 (ip), vehicle: saline",5 of 6
same,survivor count,"dose: 100.0 mg/kg/injection, schedule: Q01DX009 (ip), vehicle: saline",0 of 6
same,survivor count,"dose: 150.0 mg/kg/injection, schedule: Q04DX003 (ip), vehicle: saline",3 of 6
same,survivor count,"dose: 225.0 mg/kg/injection, schedule: Q01DX001 (ip), vehicle: saline",0 of 6
same,survivor count,"dose: 225.0 mg/kg/injection, schedule: Q04DX003 (ip), vehicle: saline",2 of 6
same,survivor count,"dose: 335.0 mg/kg/injection, schedule: Q04DX003 (ip), vehicle: saline",0 of 6
COc1ccc(NC(=O)NCc2cccc(Cl)c2)cc1,T/C,[4],125 % of control
COc1ccccc1C(C(C)C)C(C)C,survivor count,"dose: 400.0 mg/kg/injection, schedule: Q04DX003 (ip), vehicle: saline with Tween-80",3 of 6
CC(C)(C)CN,survivor count,"dose: 200.0 mg/kg/injection, schedule: Q01DX009 (ip), vehicle: saline",6 of 6
same,survivor count,[2],0 of 6
CC(=O)Nc1ccc(I)cc1C(=O)O,survivor count,[5],4 of 4
CCCCNC(C)(C)C(SSSC(c1ccco1)C(C)(C)NCCCC)c1ccco1 (stereo not drawn),survivor count,"dose: 200.0 mg/kg/injection, schedule: Q01DX009 (ip), vehicle: saline with Tween-80",0 of 6
same,survivor count,[2],0 of 6
COc1cc(C)ccc1C1=CCCC1,survivor count,"dose: 340.0 mg/kg/injection, schedule: Q01DX009 (ip), vehicle: acetone",6 of 6
C1=C\C[n+]2ccccc2-c2cccc[n+]2C/1,survivor count,[6],0 of 6
same,survivor count,[7],0 of 6
same,survivor count,[8],0 of 6
COCCOC(=O)c1ccc(C(=N)N)cc1,survivor count,[9],0 of 6
CCOP(=O)(Cc1ccc(Cl)cc1)OCC,survivor count,"dose: 400.0 mg/kg/injection, schedule: Q01DX009 (ip), vehicle: carboxymethylcellulose (CMC)",0 of 3 and 0 of 6
same,survivor count,"dose: 400.0 mg/kg/injection, schedule: Q04DX003 (ip), vehicle: carboxymethylcellulose (CMC)",0 of 6
Cc1nc2c(nc1C)C(=O)C(N1CC1)=CC2=O,survivor count,"dose: 200.0 mg/kg/injection, schedule: Q01DX001 (ip), vehicle: Klucel (hydroxypropylcellulose) (HPC)",0 of 6
same,survivor count,"dose: 400.0 mg/kg/injection, schedule: Q01DX001 (ip), vehicle: Klucel (hydroxypropylcellulose) (HPC)",0 of 6
O=C(NCCCNC(=O)Nc1ccc(C2=NCC(O)CN2)cc1)Nc1ccc(C2=NCC(O)CN2)cc1 (stereo not drawn),survivor count,"dose: 123.0 mg/kg/injection, schedule: Q01DX015 (ip), vehicle: methylcellulose (MC)",0 of 6
same,survivor count,"dose: 246.0 mg/kg/injection, schedule: Q01DX015 (ip), vehicle: methylcellulose (MC)",0 of 6
C=C1CC2(C)C(=O)CCCC2OC1=O (stereo not drawn),survivor count,"dose: 200.0 mg/kg/injection, schedule: Q01DX001 (ip), vehicle: saline with Tween-80",1 of 3
same,survivor count,[10],0 of 3
CCCC[N+](CC)(CC)CCOC(=O)C1C2CC3OC(=O)C1C3C2 (stereo not drawn),survivor count,[1],0 of 3
same,survivor count,[2],0 of 3
O=c1scc(-c2ccc(Br)cc2)s1,survivor count,"dose: 100.0 mg/kg/injection, schedule: Q04DX002 (ip), vehicle: Klucel (hydroxypropylcellulose) (HPC)",1 of 3
same,survivor count,[4],0 of 3
same,survivor count,"dose: 400.0 mg/kg/injection, schedule: Q04DX002 (ip), vehicle: Klucel (hydroxypropylcellulose) (HPC)",0 of 3
C#CC1(NC(=S)NC(=O)c2ccccc2)CCCCC1,survivor count,"dose: 200.0 mg/kg/injection, schedule: Q01DX009 (ip), vehicle: Klucel (hydroxypropylcellulose) (HPC)",0 of 6
same,survivor count,[3],0 of 6
C[N+]12CCC3=C(CC(=O)OC3)c3cccc(c31)CC2 (stereo not drawn),survivor count,"dose: 50.0 mg/kg/injection, schedule: Q01DX001 (ip), vehicle: carboxymethylcellulose (CMC)",3 of 6
same,survivor count,"dose: 100.0 mg/kg/injection, schedule: Q01DX001 (ip), vehicle: carboxymethylcellulose (CMC)",0 of 6
same,survivor count,"dose: 200.0 mg/kg/injection, schedule: Q01DX001 (ip), vehicle: carboxymethylcellulose (CMC)",0 of 6
same,survivor count,[5],0 of 6
COc1ccc2c(c1)CCCC2CC(=O)c1ccccc1 (stereo not drawn),survivor count,"dose: 400.0 mg/kg/injection, schedule: Q04DX003 (ip), vehicle: acetone",6 of 6
CC(=O)[O][Pb]([O]C(C)=O)([c]1ccccc1)[c]1ccccc1,survivor count,"dose: 400.0 mg/kg/injection, schedule: Q04DX002 (ip), vehicle: saline with Tween-80",2 of 3
O=C(O)c1c(F)c(F)c(-c2c(F)c(F)c(F)c(F)c2F)c(F)c1F,survivor count,[10],1 of 6
C[N+]([O-])(CCC#N)CC(=O)O (stereo not drawn),survivor count,[9],3 of 6
B1CCN1,survivor count,"dose: 38.0 mg/kg/injection, schedule: Q01DX001 (ip), vehicle: saline",1 of 6
same,survivor count,[6],0 of 6
same,survivor count,[7],0 of 6
same,survivor count,[8],0 of 6
[CH3][Ga]([CH3])[O]c1ccccc1C=O,survivor count,"dose: 12.5 mg/kg/injection, schedule: Q04DX003 (ip), vehicle: DMSO",2 of 6
same,survivor count,"dose: 25.0 mg/kg/injection, schedule: Q04DX003 (ip), vehicle: DMSO",1 of 6
same,survivor count,"dose: 50.0 mg/kg/injection, schedule: Q04DX003 (ip), vehicle: DMSO",0 of 6
same,survivor count,"dose: 100.0 mg/kg/injection, schedule: Q04DX003 (ip), vehicle: DMSO",0 of 6
same,survivor count,"dose: 200.0 mg/kg/injection, schedule: Q04DX003 (ip), vehicle: DMSO",0 of 6
same,survivor count,"dose: 400.0 mg/kg/injection, schedule: Q04DX003 (ip), vehicle: DMSO",0 of 6
Cc1cc2nc3ccc(=[N+](C)C)cc-3sc2cc1N,survivor count,"dose: 75.0 mg/kg/injection, schedule: Q01DX009 (ip), vehicle: saline",0 of 6
same,survivor count,"dose: 100.0 mg/kg/injection, schedule: Q04DX003 (ip), vehicle: saline",4 of 6
same,survivor count,"dose: 115.0 mg/kg/injection, schedule: Q01DX009 (ip), vehicle: saline",0 of 6
same,survivor count,"dose: 170.0 mg/kg/injection, schedule: Q01DX009 (ip), vehicle: saline",0 of 6
same,survivor count,[1],0 of 6
Nc1ccc(N=Nc2ccc(O)cc2)c(N)n1,survivor count,[9],1 of 4
NCCSC(O)(C(F)(F)F)C(F)(F)F,survivor count,[8],1 of 6 and 3 of 6
O=C(Nc1cccnc1)c1ccc([N+](=O)[O-])s1,T/C,"dose: 200.0 mg/kg/injection, schedule: Q01DX005 (ip), vehicle: saline",125 % of control
CN1C(=O)CCS(=O)(=O)C1c1ccc(Cl)cc1 (stereo not drawn),survivor count,[3],6 of 6
